Consider 41 compounds from PubChem BioAssay AID493014 (National Center for Advancing Translational Sciences (NCATS), 2011).

Molecules are shown by their SMILES. This is one part of the list. Shown are side measurements of this screen, not its main read-out; they come without a call. Compounds called inactive in the main read-out are mostly missing here. Words in brackets tell the shape of the fitted curve; partial curves, single points and poor fits give uncertain potencies.

Broadly, the AC50 is the concentration at which the activity in the assay is half-maximal.

This assay in a line: qHTS Assay to Find Inhibitors of Chronic Active B-Cell Receptor Signaling. The note with it: ABC-DLBCL IkBa-CBG/CBR reporter, luminescence ratio (green luciferase fused to IkBa over red control in TMD8 lymphoma cells), 4 h. A digest of the protocol: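 Concentration-response series (up to 46 uM) were applied to TMD8 dual-reporter cells for 4 h at 37C with doxycycline. Green/red ratio, after filter-overlap correction, defined %Activity; red signal alone was normalised to basal cells and zero luminescence.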
Background: qHTS replaces the single test concentration by a dilution series.

[1] abbreviates: measured here: CBR red luminescence, cell number.
[2] abbreviates: measured here: IkBa-CBG green luminescence.

In the case of `O=C(O)c1ccc2c(c1)C(=O)N(c1cc(C(=O)O)ccc1Br)C2=O`, under setting [1], the AC50 was 2.06 µM [falling, partial curve, poor fit].

For `O=C(Cc1nc2ccccc2[nH]1)c1ccc([N+](=O)[O-])cc1`, the half-maximal activity concentration (AC50) under setting [1] was 11.2 µM [falling, partial curve, poor fit]. The same measure, in the same setting: next, `CC1=C(C(=O)OCc2ccccc2)C(c2ccsc2)NC(=O)N1C` (centres undefined): 10 µM [falling, single point]. Same read-out and setting: next, `COc1ccc(-c2nn(-c3ccccc3)cc2/C=N/Nc2ccc(S(N)(=O)=O)cc2[N+](=O)[O-])cc1OC`: 35.5 µM [rising, single point]. On to `CC1Oc2ccccc2N(CC(=O)NC2CCCCC2)C1=O` (centres undefined), for which the concentration at half-maximal activity (AC50) under setting [1] is 12.6 µM [falling, partial curve, poor fit]. Still for that read-out and setting: to `COc1ccc(C/C(C)=N/NC(=O)C2COc3ccccc3O2)cc1` (centres undefined) belongs 35.5 µM [rising, partial curve, poor fit]; to `Cc1ccc(/C=N/NC(=O)c2ccccn2)s1`, 9.2 µM [falling, partial curve]. Same read-out and setting: to `COC(=O)C1=C(C)NC(=O)NC1c1cc(Cl)ccc1OC` (centres undefined) belongs 29.1 µM [rising, single point]; to `Cc1oc(CSCCSCc2cc(C(=O)O)c(C)o2)cc1C(=O)O`, 14.1 µM [rising, single point]; to `O=S(=O)(/N=C(/Nc1cccnc1)c1ccccc1)c1ccc(F)cc1F`, 0.184 µM [falling, full curve, poor fit]. Same read-out and setting: to `CCn1c(SC)nc2c(c1=O)SC(C)C2` (centres undefined) belongs 7.31 µM [rising, partial curve, poor fit]; to `O=C(Cn1ncc2c(=O)oc3ccccc3c21)N(Cc1ccco1)C1CCCCC1`, 3.66 µM [falling, full curve, poor fit]; to `O=C(COC(=O)c1cccs1)c1ccc2c(c1)OCCO2`, 29.1 µM [falling, single point].

Turning to `O=c1c(Cl)c(Cl)cnn1-c1ccccc1`, the concentration at half-maximal activity (AC50) by setting is: under setting [1], 5.17 µM [falling, full curve]; under setting [2], 5.17 µM [rising, full curve]. Turning to `C[C@H](Cc1ccccc1)Nc1ncnc2c1ncn2[C@@H]1O[C@H](CO)[C@@H](O)[C@H]1O`, the half-maximal activity concentration (AC50) was 2.31 µM [rising, partial curve] under setting [1] and 1.84 µM [falling, partial curve] under setting [2]. With `COc1ccc(C)cc1NC(=O)C(Sc1nnc(-c2cccs2)o1)c1ccccc1` (centres undefined), the AC50 under setting [1] was 1.64 µM [rising, full curve, poor fit]. On the same count and under the same terms, next, `O=C(OCc1ccccc1F)c1ccc2c(c1)OCCO2`: 23.1 µM [rising, partial curve, poor fit]; `CCn1cnc2c1c(=O)n(CC(=O)Nc1cc(C)on1)c(=O)n2Cc1ccccc1`: 2.82 µM [rising, full curve]; `O=C(Nc1cccc(O)c1)c1noc2c1CCc1ccccc1-2`: 7.31 µM [falling, partial curve, poor fit].

With `Cc1ccc2nc(SCC(=O)Nc3ccc(F)cc3F)[nH]c2c1`, the AC50 under setting [1] is 5.62 µM [falling, partial curve, poor fit]. On to `CCc1ccc(NC(=O)c2cnn(-c3ccccc3)c2C)cc1`, for which the half-maximal activity concentration (AC50) under setting [1] is 4.61 µM [rising, full curve]. Same read-out and setting: to `Cc1nc(C)c(C(=O)N/N=C/c2cn(C)c3ccccc23)s1` belongs 6.51 µM [falling, partial curve, poor fit]. Consider `COc1cc(-c2c(-c3cc(OC)c(OC)c(OC)c3)noc2C)ccc1F`, for which the AC50 runs as follows: under setting [1], 3.16 µM [rising, full curve]; under setting [2], 3.55 µM [falling, partial curve, poor fit]. On to `CC(=O)c1cc2c(cc1NC(=O)CN1CCC(Cc3ccccc3)CC1)OCO2`, for which the AC50 under setting [1] was 0.651 µM [rising, partial curve, poor fit]. On the same count and under the same terms, to `CCCCCCC(=O)c1c(C)[nH]c(C(=O)OCC)c1C` belongs 0.58 µM [rising, full curve, poor fit]; to `O=C(COc1ccc2ccccc2c1)Nc1nccs1`, 3.98 µM [falling, full curve, poor fit]. The same measure, in the same setting: to `CCOC(=O)c1c(S(=O)(=O)N2CCCC(C(=O)Nc3ccccn3)C2)c(C)n(C)c1C` (centres undefined) belongs 2.82 µM [falling, full curve]; to `Cc1c(Cl)cccc1NC(=O)CC1SCCNC1=O` (centres undefined), 0.103 µM [rising, full curve, poor fit]; to `CCOc1ccccc1NC(=O)c1c(NCc2cccs2)sc2c1CCC(C)C2` (centres undefined), 6.31 µM [rising, single point]. As to `CCC(CC)C(=O)Nc1c2c(nn1-c1ccc(C)cc1)CS(=O)(=O)C2`, the AC50 under setting [1] is 15.8 µM [rising, partial curve, poor fit]. As to `COC(=O)c1cc(S(=O)(=O)C(C)C)c(S(C)=O)s1` (centres undefined), the half-maximal activity concentration (AC50) under setting [1] was 15.8 µM [falling, single point]. On the same count and under the same terms, next, `CCOC(=O)c1c(C)[nH]c(C(=O)CSc2ccc(Cl)cc2)c1C`: 3.26 µM [rising, full curve, poor fit]; `CCCCNC(=O)c1onc(CSc2ccccc2F)c1C(=O)O`: 35.5 µM [falling, single point]; `COc1cc(S(=O)(=O)Nc2ccc(C)cc2)ccc1NC(=O)c1ccncc1`: 29.1 µM [falling, single point]. `COc1ccc(S(=O)(=O)N2CCc3ccccc3C2)cc1OC`: under setting [1], the AC50 is 35.5 µM [falling, single point]. `O=C(O)CCN1C(=O)c2ccccc2C1=O`: the concentration at half-maximal activity (AC50) under setting [2] was 4.11 µM [rising, partial curve, poor fit]. For `Cc1ccc(S(=O)(=O)Nc2ccccc2C(O)c2ccccc2)cc1` (centres undefined), the half-maximal activity concentration (AC50) under setting [1] was 22.4 µM [rising, single point]. Still for that read-out and setting: next, `COc1ccccc1C(=O)Nc1nc(-c2cccs2)c(NC(C)=O)s1`: 16.4 µM [rising, single point].

For `CCN(CC(=O)Nc1ccccc1OC)C(=O)c1ccc2[nH]c3c(c2c1)CC(C)CC3` (centres undefined), under setting [1], the AC50 is 20.6 µM [falling, single point]. As for `CCN1CCS/C1=C/C=C/C1=[N+](CC)CCS1`, the AC50 under setting [2] was 29.1 µM [falling, partial curve, poor fit].

`CCN(C(=O)c1cc2c(C)nc3ccccc3c2o1)c1cc(Cl)ccc1OC`: under setting [1], the AC50 is 15.8 µM [falling, single point].
